Experimental data published in PubChem BioAssay AID2685 (National Center for Advancing Translational Sciences (NCATS), 2010).
This is one part of the list. The main result of the screen is listed elsewhere. These columns were measured beside it and carry no call. Compounds called inactive in the main read-out are mostly missing here. Potencies come from curve fits of mixed quality, noted in brackets.

Test: qHTS Assay for Lipid Storage Modulators in Drosophila S3 Cells;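 for cell number change: cells counted by Cell Tracker Red CMTPX staining in the red channel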
Details: BODIPY lipid droplet fluorescence, 18-24 h; for cell number change: measured here: cell count max response, cells fed with added oleic acid
In short: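 Drosophila S3 cells got compounds at several concentrations plus oleic acid (400 uM solution). Laser-scanning cytometry with 488 nm excitation read lipid droplets at 500-530 nm and cells at 575-640 nm. Percent activity was relative to 20 uM Triacsin C.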

[1] = measured here: lipid fluorescence (Fed channel) AC50, cells fed with added oleic acid
[2] = measured here: cell number channel AC50, cells fed with added oleic acid

| Structure (SMILES) | cell number change [%] | AC50 [1] | AC50 [2] |
| --- | --- | --- | --- |
| Cc1ccccc1N1C(=O)C2C3CC(=O)C(c4ccccc43)C2C1=O (stereo unspecified) | -2.4 | 2.59 µM [falling, partial curve] |  |
| COc1ccc(CCNC(=O)CC2Nc3ccccc3NC2=O)cc1OC (stereo unspecified) | -10.9 |  |  |
| CCC(C)c1ccccc1NC(=O)COc1ccc(-c2nnco2)cc1 (stereo unspecified) | 22.9 |  |  |
| O=C(Nc1nc2ccc(S(=O)(=O)N3CCCC3)cc2s1)c1ccco1 | -1.84 | 6.51 µM [falling, single point] |  |
| COc1ccccc1CCNC(=O)C(=O)NCC1CCCN1S(=O)(=O)c1ccccc1 (stereo unspecified) | -29.8 |  |  |
| O=C(CSc1cccc[n+]1[O-])N1CCc2ccccc21 | 19.2 | 1.84 µM [rising, full curve, poor fit] |  |
| O=C(COC(=O)c1cc(S(=O)(=O)Nc2ccccc2Cl)ccc1O)Nc1nc2ccccc2s1 | -10.9 |  | 0.731 µM [rising, full curve, poor fit] |
| CN(C)C(CNC(=O)c1ccc(NS(=O)(=O)c2ccc3[nH]c(=O)[nH]c3c2)cc1)c1ccccc1 (stereo unspecified) | -6.02 |  |  |
| COc1ccc(NC(=O)c2ccc(-c3ccc(-c4noc(C)n4)cc3C)cc2)cc1N1CCN(C)CC1 | -51.2 | 5.8 µM [falling, partial curve, poor fit] | 25.9 µM [falling, partial curve, poor fit] |
| COc1ccc(C2/C(=C(/O)c3ccc4c(c3)CC(C)O4)C(=O)C(=O)N2CCN2CCOCC2)cc1OC (stereo unspecified) | -8.01 | 1.46 µM [rising, partial curve] |  |
| Cc1nn(Cc2ccccc2)c(C)c1CNC(=O)[C@H](C)N=C1NS(=O)(=O)c2ccccc21 | -22.9 | 0.411 µM [falling, full curve] | 0.0517 µM [falling, full curve, poor fit] |
| Cc1c(NC(=O)c2cc(-c3ccccc3O)on2)c(=O)n(-c2ccccc2)n1C | 21.9 | 0.291 µM [rising, partial curve, poor fit] |  |
| Cc1c(CCO)c(=O)n(-c2ccccc2)n1S(=O)(=O)c1c(Cl)cc(Cl)cc1Cl | -20.8 | 0.164 µM [falling, full curve, poor fit] |  |
| COc1ccc(S(=O)(=O)N(C)CC(=O)Nc2ccc3c(c2)OCCO3)cc1 | 48 |  | 14.6 µM [rising, single point] |
| CC(Oc1ccccc1C(N)=O)C(=O)Nc1ccc(S(=O)(=O)N2CCCC2)cc1 (stereo unspecified) | 3.63 |  |  |
| CCOC(=O)C(C)N1C(=O)S/C(=C/c2cc(C)n(-c3ccccn3)c2C)C1=O (stereo unspecified) | -11.8 | 2.91 µM [rising, partial curve, poor fit] |  |
| CC(C)Nc1nnc(SCC(=O)N2CCN(C(=O)c3ccco3)CC2)s1 | 1.84 | 2.31 µM [rising, single point] |  |
| Cc1c(C(=O)N2CCN(c3ncccn3)CC2)oc2ccc(Cl)cc12 | 48 | 0.82 µM [rising, full curve] | 5.8 µM [rising, partial curve] |
| Cc1ccc(C(=O)Nc2nnc(S(=O)(=O)N3CCCCCC3)s2)cc1 | 6.89 | 29.1 µM [rising, single point] |  |

As a working copy, two of the compounds above.

| Structure (SMILES) | cell number change [%] | AC50 [1] | AC50 [2] |
| --- | --- | --- | --- |
| O=C(COC(=O)c1cc(S(=O)(=O)Nc2ccccc2Cl)ccc1O)Nc1nc2ccccc2s1 | -10.9 |  | 0.731 µM [rising, full curve, poor fit] |
| CN(C)C(CNC(=O)c1ccc(NS(=O)(=O)c2ccc3[nH]c(=O)[nH]c3c2)cc1)c1ccccc1 (stereo unspecified) | -6.02 |  |  |

Carrying on.

| Structure (SMILES) | cell number change [%] | AC50 [1] | AC50 [2] |
| --- | --- | --- | --- |
| CCOc1cc(C(=O)NCc2ccc(F)cc2)ccc1OCC(=O)N1CCCCC1 | 47.7 | 29.1 µM [rising, partial curve] | 25.9 µM [rising, partial curve] |
| COC(=O)C1=C(O)/C(=C\c2ccc(OCC(=O)Nc3ccccc3)cc2)N=C1C |  | 4.11 µM [rising, single point] |  |
| CN(C)/C=N/c1sc2c(c1C(N)=O)CCCC2 | 19.9 | 18.4 µM [rising, single point] |  |
| N#Cc1ccccc1NC(=O)CSc1nccn1CCc1ccccc1 |  | 0.58 µM [rising, single point] | 0.58 µM [rising, single point] |
| Cc1ccc(/C=C/C(=O)O)cc1S(=O)(=O)NCCCO | -82.8 |  | 32.6 µM [falling, single point] |
| CCN1CCN(C(c2ccc(OC)cc2)c2nnnn2Cc2ccc3c(c2)OCO3)CC1 (stereo unspecified) | 28.9 | 0.058 µM [rising, full curve, poor fit] | 0.291 µM [rising, full curve, poor fit] |
| O=C(CSCc1ccc(Br)cc1)N1CCCC1 | -13.1 | 29.1 µM [falling, single point] |  |
| CN1CCN(c2ccccc2NC(=O)c2ccc(N3CCCC3)c([N+](=O)[O-])c2)CC1 | -9.6 |  |  |
| Cc1ccc(CNC(=O)c2ccc(NC(=O)C3=CSCCO3)cc2)cc1 | -8.55 | 18.4 µM [rising, single point] |  |
| Cc1cc(N2CCN(C(=O)c3ccco3)CC2)nc(-c2ccccc2)n1 | -33.2 | 1.84 µM [falling, full curve, poor fit] |  |
| O=c1[nH]c2ccccc2nc1/C=C/c1ccc(F)cc1 |  | 10.3 µM [falling, partial curve] |  |
| O=C(CSc1nnc(NC(=O)Cc2ccc(F)cc2)s1)NCc1ccco1 | -31.6 | 0.82 µM [falling, full curve, poor fit] | 0.206 µM [falling, full curve] |
| CC(/C=N/Nc1nc(N2CCCCC2)nc(N2CCCCC2)n1)=C\c1ccccc1 | 2.32 |  |  |
| Cc1ccc(NC(=O)OCc2cccs2)cc1 | 4.7 |  |  |
| O=C(CNC(=O)c1ccc(Cl)cc1)NCCCn1ccnc1 | 34.5 |  | 29.1 µM [rising, single point] |
| Cc1c(C(=O)N2CCN(c3ccc(F)cc3)CC2)sc2nc3n(c(=O)c12)CCC3 | 15.8 |  |  |
| CCCn1nnnc1SCC(=O)c1ccc2c(c1)OCCO2 | -90.2 | 18.4 µM [falling, partial curve] | 16.4 µM [falling, partial curve] |
| Cc1c(C(=O)N(C)CC(=O)Nc2cccc(F)c2)oc2c(Cl)cccc12 | 22.5 |  |  |
| Cc1ccc(/C=N/NC(=O)c2nnn(-c3nonc3N)c2CN(C)C)o1 | -16.2 | 0.259 µM [falling, full curve, poor fit] |  |
